Measured values from PMC4858180.

The chains behind the UniProt entries cited, without tags or fusion partners. Where a name states a change or a piece, a line headed by the entry shows the natural chain unless it says otherwise. Residues count along the entry.
UniProt O08689: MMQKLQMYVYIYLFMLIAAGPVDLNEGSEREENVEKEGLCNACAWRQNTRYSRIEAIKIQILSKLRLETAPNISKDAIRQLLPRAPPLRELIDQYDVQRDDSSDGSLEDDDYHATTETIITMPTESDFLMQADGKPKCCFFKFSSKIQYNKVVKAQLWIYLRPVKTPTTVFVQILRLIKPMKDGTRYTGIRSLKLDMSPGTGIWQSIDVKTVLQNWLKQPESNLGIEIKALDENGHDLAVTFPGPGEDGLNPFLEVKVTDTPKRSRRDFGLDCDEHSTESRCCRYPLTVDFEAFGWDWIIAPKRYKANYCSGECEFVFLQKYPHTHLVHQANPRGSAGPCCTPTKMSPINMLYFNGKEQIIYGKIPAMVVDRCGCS
UniProt Q8N2S1, residues 28-1624: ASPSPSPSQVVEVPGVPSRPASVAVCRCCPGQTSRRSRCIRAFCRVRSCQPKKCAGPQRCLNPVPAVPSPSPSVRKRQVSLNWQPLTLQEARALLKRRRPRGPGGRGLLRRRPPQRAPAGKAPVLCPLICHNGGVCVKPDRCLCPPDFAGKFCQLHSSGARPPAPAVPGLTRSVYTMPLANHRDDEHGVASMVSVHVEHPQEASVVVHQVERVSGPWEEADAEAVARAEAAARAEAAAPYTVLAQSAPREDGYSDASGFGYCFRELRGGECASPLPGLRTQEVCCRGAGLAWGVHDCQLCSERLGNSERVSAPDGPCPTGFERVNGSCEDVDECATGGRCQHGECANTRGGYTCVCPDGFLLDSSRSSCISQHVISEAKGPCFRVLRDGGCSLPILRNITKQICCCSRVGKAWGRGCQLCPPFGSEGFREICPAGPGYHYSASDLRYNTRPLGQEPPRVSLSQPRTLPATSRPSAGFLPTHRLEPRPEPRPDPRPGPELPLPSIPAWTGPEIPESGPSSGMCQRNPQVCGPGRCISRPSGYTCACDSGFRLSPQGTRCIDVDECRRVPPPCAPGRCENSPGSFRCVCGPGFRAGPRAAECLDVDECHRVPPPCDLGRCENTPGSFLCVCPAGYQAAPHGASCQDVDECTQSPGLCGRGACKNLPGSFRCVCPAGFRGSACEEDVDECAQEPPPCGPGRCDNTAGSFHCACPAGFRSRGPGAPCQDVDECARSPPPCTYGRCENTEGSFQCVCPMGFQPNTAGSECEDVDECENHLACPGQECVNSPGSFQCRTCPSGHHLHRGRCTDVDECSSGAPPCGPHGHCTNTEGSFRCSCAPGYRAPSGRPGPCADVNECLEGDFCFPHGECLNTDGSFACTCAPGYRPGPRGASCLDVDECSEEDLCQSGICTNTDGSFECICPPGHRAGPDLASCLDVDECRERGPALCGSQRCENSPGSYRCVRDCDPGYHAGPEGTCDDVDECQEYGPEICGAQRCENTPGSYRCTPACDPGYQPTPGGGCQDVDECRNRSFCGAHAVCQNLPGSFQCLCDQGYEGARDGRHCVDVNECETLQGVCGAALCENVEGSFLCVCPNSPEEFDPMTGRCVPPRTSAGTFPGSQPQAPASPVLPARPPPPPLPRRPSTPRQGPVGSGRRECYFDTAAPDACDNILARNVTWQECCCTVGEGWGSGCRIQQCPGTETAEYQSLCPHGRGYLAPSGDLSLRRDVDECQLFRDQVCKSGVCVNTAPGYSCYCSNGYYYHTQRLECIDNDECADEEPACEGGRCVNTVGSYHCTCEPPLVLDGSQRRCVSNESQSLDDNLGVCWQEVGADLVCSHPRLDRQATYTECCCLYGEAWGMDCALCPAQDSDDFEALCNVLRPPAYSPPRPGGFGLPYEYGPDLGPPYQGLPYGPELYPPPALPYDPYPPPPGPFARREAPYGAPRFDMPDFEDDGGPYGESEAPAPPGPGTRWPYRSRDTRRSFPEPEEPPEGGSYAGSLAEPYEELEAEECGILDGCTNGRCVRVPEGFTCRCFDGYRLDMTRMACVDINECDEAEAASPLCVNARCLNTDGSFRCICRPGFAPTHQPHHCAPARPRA
UniProt Q8K4G1, residues 25-1666: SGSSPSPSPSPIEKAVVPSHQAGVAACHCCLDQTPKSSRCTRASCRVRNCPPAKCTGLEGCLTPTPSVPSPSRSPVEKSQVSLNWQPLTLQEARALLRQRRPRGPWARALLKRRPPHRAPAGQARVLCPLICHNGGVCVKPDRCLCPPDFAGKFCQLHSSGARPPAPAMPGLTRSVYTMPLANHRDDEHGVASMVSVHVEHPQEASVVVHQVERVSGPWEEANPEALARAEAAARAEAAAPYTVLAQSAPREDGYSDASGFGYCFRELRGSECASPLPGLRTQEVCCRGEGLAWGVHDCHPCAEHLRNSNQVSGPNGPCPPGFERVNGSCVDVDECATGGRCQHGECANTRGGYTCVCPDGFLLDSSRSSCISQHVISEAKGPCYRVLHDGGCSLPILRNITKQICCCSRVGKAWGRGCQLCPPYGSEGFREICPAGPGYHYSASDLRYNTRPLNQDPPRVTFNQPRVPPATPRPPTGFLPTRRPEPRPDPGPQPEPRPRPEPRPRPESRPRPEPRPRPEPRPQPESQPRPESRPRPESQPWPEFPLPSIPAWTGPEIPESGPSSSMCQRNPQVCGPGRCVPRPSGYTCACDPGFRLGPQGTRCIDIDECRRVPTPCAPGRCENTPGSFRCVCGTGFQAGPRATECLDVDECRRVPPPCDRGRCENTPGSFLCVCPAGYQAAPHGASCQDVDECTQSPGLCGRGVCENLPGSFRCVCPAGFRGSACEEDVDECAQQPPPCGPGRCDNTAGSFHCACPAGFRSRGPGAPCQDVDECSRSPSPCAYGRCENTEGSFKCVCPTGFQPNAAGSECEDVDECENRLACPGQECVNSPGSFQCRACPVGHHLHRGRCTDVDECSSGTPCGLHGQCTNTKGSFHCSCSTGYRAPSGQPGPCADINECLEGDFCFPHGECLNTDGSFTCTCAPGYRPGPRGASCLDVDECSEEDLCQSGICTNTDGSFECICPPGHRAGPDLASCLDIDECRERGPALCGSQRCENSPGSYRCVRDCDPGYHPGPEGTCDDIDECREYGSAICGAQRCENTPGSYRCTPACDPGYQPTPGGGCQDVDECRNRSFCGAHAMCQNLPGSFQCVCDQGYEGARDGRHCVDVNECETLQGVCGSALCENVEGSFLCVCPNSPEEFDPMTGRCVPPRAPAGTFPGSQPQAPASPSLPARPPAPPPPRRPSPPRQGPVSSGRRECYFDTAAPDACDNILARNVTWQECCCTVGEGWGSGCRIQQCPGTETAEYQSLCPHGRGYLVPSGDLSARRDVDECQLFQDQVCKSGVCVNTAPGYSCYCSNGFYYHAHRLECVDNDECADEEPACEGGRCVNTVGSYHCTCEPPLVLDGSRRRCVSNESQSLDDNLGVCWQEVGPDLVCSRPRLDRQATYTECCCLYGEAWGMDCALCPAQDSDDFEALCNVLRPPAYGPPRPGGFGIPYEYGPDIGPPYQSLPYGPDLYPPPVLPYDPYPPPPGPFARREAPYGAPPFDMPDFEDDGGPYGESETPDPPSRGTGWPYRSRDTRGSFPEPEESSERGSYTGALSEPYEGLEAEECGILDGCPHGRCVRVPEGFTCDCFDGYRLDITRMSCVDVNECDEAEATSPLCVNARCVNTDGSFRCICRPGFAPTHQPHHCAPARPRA
UniProt O14793: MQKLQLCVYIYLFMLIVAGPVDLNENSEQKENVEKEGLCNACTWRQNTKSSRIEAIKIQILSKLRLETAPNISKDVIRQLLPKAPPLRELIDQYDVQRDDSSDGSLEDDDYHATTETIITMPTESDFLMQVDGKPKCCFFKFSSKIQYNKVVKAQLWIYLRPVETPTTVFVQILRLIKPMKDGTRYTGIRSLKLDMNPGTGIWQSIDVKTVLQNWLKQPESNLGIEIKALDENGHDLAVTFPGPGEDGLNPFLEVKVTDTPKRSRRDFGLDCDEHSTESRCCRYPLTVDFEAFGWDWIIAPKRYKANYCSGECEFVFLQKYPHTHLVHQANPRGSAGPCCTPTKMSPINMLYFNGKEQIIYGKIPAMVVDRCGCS

Experiments:
[1] = molecular target: myostatin (endogenous, mouse skeletal muscle) (mouse (endogenous in muscle)) (UniProt O08689); assay: co-IP; mouse muscle lysates (combined limb muscles of 10 week old wildtype and TG+ mice), 1 mg lysate; immunoprecipitated with anti-myostatin antibody (EMD Millipore AB3239-I), immunoblotted with anti-LTBP4; control without precipitating antibody; 4°C
[2] = molecular target: full length human LTBP4 with amino-terminal Xpress tag (human) (UniProt Q8N2S1); assay: co-IP; lysates of co-transfected HEK293T cells (150 mM NaCl, 50 mM Tris HCl pH 8, 0.1% Triton X-100), 500 μg lysate; immunoprecipitated with anti-LTBP4 antibody, immunoblotted with anti-myc; control without precipitating antibody; 4°C

binding [1]	binding [2]	Substance
binds		LTBP4 (endogenous, wildtype mouse skeletal muscle) (from UniProt Q8K4G1 25-1666)
	binds	human myostatin with carboxy-terminal Myc tag (from UniProt O14793)
binds		mouse LTBP4 transgene product (HSA-LTBP4, protective allele) with carboxy-terminal Xpress tag, in TG+ muscle (from UniProt Q8K4G1 25-1666)

Results are given in words; binding and its absence hold for the method and conditions named. In cells and extracts the contact can be indirect. A result given as binding can be weak or reduced; the word gives no strength.
